The values below come from PubChem BioAssay AID2685 (National Center for Advancing Translational Sciences (NCATS), 2010).

The other results are listed elsewhere or left out. Shown are side measurements of this screen, not its main read-out; they come without a call. Compounds called inactive in the main read-out are mostly missing here. Potencies come from curve fits of mixed quality, noted in brackets.

What is called AC50 is the midpoint of the concentration-response curve, whichever way the signal moves.

The nature of this assay: qHTS Assay for Lipid Storage Modulators in Drosophila S3 Cells.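 On cell number change: cells counted by Cell Tracker Red CMTPX staining in the red channel.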 The note with it: BODIPY lipid droplet fluorescence, 18-24 h; for cell number change: measured here: cell count max response, cells fed with added oleic acid. The gist of the method:
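Laser-scanning cytometry quantifies lipid droplet accumulation (500–530 nm total intensity; droplet/cell object ratio) in oleic acid-fed (400 uM added) Drosophila S3 cells treated with a concentration series. 20 uM Triacsin C defined 100% inhibition.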

Where [1] appears, read: measured here: lipid fluorescence (Fed channel) AC50, cells fed with added oleic acid.
Setting [2] is: measured here: cell number channel AC50, cells fed with added oleic acid.

As for `COc1cccc(NC(=O)CN(C)C(=O)c2sc3cc(Cl)ccc3c2Cl)c1`, the cell number change was -2.15%.

As to `COc1cc(/C=C2\SC(=S)N(NC(=O)c3ccccc3O)C2=O)ccc1O`, the cell number change is -98.5%.

`Cc1ccc(C(=O)Cc2nc3ccccc3[nH]2)cc1`: the cell number change is -22.4%. For the same molecule, the AC50 under setting [1] is 0.1 µM [rising, full curve, poor fit].

With `CCOC(=O)c1cc2sccc2n1Cc1ccc(C#N)cc1`, the cell number change was 56%. Moreover, under setting [2], the AC50 is 8.2 µM [rising, partial curve]. The AC50 under setting [1] was 6.51 µM [rising, single point].

Turning to `Cc1ccn2c(=O)nc(SCC(=O)NC3CCCC3)nc2c1`, the cell number change turned out to be 26.9%.

Turning to `Cc1cc(N=Nc2ccc(Cl)cc2)cc(CN2CCOCC2)c1O`, the cell number change is -61.3%. Besides, under setting [2], the AC50 is 10.3 µM [falling, partial curve].

In the case of `COc1ccccc1N(C(=O)c1snc(C(N)=O)c1N)C(C(=O)NC1CCCC1)c1ccc(N(C)C)cc1` (stereo unspecified), the cell number change was 17.5%. In addition, under setting [1], the AC50 was 2.91 µM [rising, single point].

Turning to `CCOC(=O)N/C(N)=N/c1nc2ccccc2s1`, the cell number change is 11.8%.

With `N#CC1(C#N)C(C(=O)C23CC4CC(CC(C4)C2)C3)C12CCOCC2` (stereo unspecified), the cell number change is -27.7%.

With `Oc1oc(-c2ccccc2)nc1/C=N/c1nccs1`, the cell number change amounted to 40.2%. Also, the AC50 under setting [2] was 29.1 µM [rising, single point]. Moreover, the AC50 under setting [1] was 2.91 µM [rising, single point].

Turning to `O=C(c1ccco1)N1CCN(C(=O)N2c3ccccc3Sc3ccccc32)CC1`, the cell number change was -44.7%. The half-maximal activity concentration (AC50) under setting [2] is 23.1 µM [falling, partial curve, poor fit].

Regarding `Nc1ccc(-c2ccc(N)cc2C(F)(F)F)c(C(F)(F)F)c1`, the cell number change was -6.64%. The AC50 under setting [2] was 5.17 µM [rising, single point].

`COC(=O)c1ccc(N2CCOCC2)c(NC(=O)c2ccc3c(c2)OCO3)c1`: the cell number change turned out to be 12.8%. For the same molecule, the AC50 under setting [1] is 29.1 µM [falling, single point].

As for `Cc1ccc(CN(C(=O)c2csnn2)C(C(=O)NC2CCCC2)c2cccnc2)cc1` (stereo unspecified), the cell number change was determined as 20.9%.

With `O=C(NNS(=O)(=O)c1ccc([N+](=O)[O-])cc1)C(=O)Nc1cccc(C(=O)O)c1`, the cell number change is 22.9%. Moreover, under setting [1], the AC50 was 29.1 µM [falling, single point].

As to `C=CCOc1nc2c(c(=O)n(C)c(=O)n2C)n1C`, the cell number change was 145%. For the same molecule, the AC50 under setting [2] is 29.1 µM [rising, single point]. In addition, the AC50 under setting [1] is 8.2 µM [rising, partial curve].

For `Cc1noc(C)c1C(=O)N1CCC(Cc2ccccc2)CC1`, the cell number change worked out at 9.03%. Further, the AC50 under setting [2] was 3.66 µM [falling, single point]. The AC50 under setting [1] is 3.26 µM [falling, single point].

For `CCCc1ccc(OCC(O)CN2CCN(c3ccccc3)CC2)cc1` (stereo unspecified), the cell number change is -41.6%. Also, the AC50 under setting [2] is 16.4 µM [falling, single point]. The AC50 under setting [1] was 20.6 µM [falling, single point].

In the case of `O=C(Cn1cc([N+](=O)[O-])cn1)NCc1ccco1`, the cell number change is -5.19%. For the same molecule, the AC50 under setting [1] was 0.00461 µM [falling, full curve, poor fit].

With `CCOCCCNc1nc2c([nH]1)c(=O)n(C)c(=O)n2C`, the cell number change stood at 39.9%. In addition, under setting [2], the AC50 is 14.6 µM [rising, single point].

Regarding `Cc1ccc(-n2c(O)c(/C=N/Nc3ccc(S(=O)(=O)N4CCOCC4)cc3[N+](=O)[O-])c3ccccc3c2=O)c(C)c1`, the cell number change was -29.9%.

As for `Cc1ccc(S(=O)(=O)N[C@H](C(=O)N2CCC3(O)CCCCC3C2)c2ccccc2)cc1` (stereo partly specified), the cell number change was -16.2%. Moreover, under setting [1], the AC50 is 18.4 µM [falling, partial curve].

As to `NS(=O)(=O)c1cccc(NC(=S)NCc2ccccc2)c1`, the AC50 under setting [1] is 0.00411 µM [falling, full curve, poor fit].

`CC(C)[N+]1(C)[C@@H]2CC[C@H]1CC(OC(=O)C(CO)c1ccccc1)C2` (stereo partly specified): under setting [1], the AC50 is 0.058 µM [falling, full curve].

For the molecule `Cc1ccc(CNC(=O)c2cc(=O)c3ccccc3o2)cc1`, the cell number change was -15.2%. The AC50 under setting [1] is 29.1 µM [rising, single point].

In the case of `Cc1nn(Cc2nnc(SCC(=O)Nc3ccc(Cl)cc3)n2C)c(C)c1[N+](=O)[O-]`, the cell number change is -4.48%. The AC50 under setting [1] is 0.184 µM [falling, full curve, poor fit].

For `C#CCOCCOCCOCCNc1nc(N2CCOCC2)nc(N2CCN(C(=O)[C@H](Cc3cc4ccccc4[nH]3)n3cc([C@@H](N)C(C)CC)nn3)CC2)n1` (stereo partly specified), the cell number change was 3.66%. Also, the AC50 under setting [1] is 29.1 µM [rising, single point].

As for `COc1ccc(N2C(=O)CC(N3CCC(O)(c4cccc(C(F)(F)F)c4)CC3)C2=O)cc1` (stereo unspecified), the cell number change turned out to be 7.02%. In addition, under setting [1], the AC50 is 29.1 µM [rising, single point].

Take `CN1C(=O)NC(c2ccccc2)C2=C1CN(c1cccc(C(F)(F)F)c1)C2=O` (stereo unspecified): the cell number change was -36.5%. Besides, the AC50 under setting [2] was 6.51 µM [falling, full curve, poor fit]. The AC50 under setting [1] was 7.31 µM [falling, partial curve].

As for `O=C(COC(=O)c1ccccc1F)Nc1cc(S(=O)(=O)N2CCOCC2)ccc1N1CCCC1`, the cell number change was -0.352%. The AC50 under setting [2] was 0.00461 µM [falling, full curve, poor fit]. Besides, the AC50 under setting [1] was 18.4 µM [falling, partial curve, poor fit].

Regarding `COCc1nnc(NC(=O)CCC2CCCCC2)s1`, the cell number change was -4.61%. Further, the AC50 under setting [1] was 29.1 µM [rising, partial curve, poor fit].

Regarding `COc1ccc(CNC(=O)COC(=O)c2nc3nc(C)cc(C)n3n2)cc1`, the cell number change is -4.54%. Moreover, the AC50 under setting [1] is 0.146 µM [rising, full curve, poor fit].

For `COc1cccc(N2CCN(C(=O)c3ccccc3SCC(=O)NCc3ccco3)CC2)c1`, the cell number change is -3.76%.

Consider `Cc1cccc(NC(=S)N2CCC(NC(=O)C3CCCCC3)CC2)c1`, for which the cell number change is 10.8%. The half-maximal activity concentration (AC50) under setting [1] is 0.651 µM [falling, partial curve, poor fit].

For `N/C(=N/O)C(c1ccccc1)c1ccccc1`, the cell number change is -45.5%. Also, the AC50 under setting [1] was 2.31 µM [falling, partial curve, poor fit].

On to `O=C1/C(=C/c2cccs2)N=C(c2cccs2)N1Nc1ccccc1`, for which the AC50 by setting is: under setting [2], 0.092 µM [rising, full curve, poor fit]; under setting [1], 0.366 µM [rising, full curve].

In the case of `CCc1ccc(Nc2nnc(SCC(=O)c3c(N)n(C4CC4)c(=O)[nH]c3=O)s2)cc1`, the cell number change was -5.62%.

As for `O=C(Nc1ccc2nc(-c3ccco3)c(-c3ccco3)nc2c1)N1CCN(c2ccccn2)CC1`, the cell number change was -0.25%.
